In article PMC5974179:
These are yes or no findings as the source states them, for the method shown. Binding seen in cells or lysates may run through a third protein. These calls come from enrichment with a bait or labelling near it, and not all partners need be listed.

Chains of the proteins cited; added tags and fusions are not shown.
UniProt P08670: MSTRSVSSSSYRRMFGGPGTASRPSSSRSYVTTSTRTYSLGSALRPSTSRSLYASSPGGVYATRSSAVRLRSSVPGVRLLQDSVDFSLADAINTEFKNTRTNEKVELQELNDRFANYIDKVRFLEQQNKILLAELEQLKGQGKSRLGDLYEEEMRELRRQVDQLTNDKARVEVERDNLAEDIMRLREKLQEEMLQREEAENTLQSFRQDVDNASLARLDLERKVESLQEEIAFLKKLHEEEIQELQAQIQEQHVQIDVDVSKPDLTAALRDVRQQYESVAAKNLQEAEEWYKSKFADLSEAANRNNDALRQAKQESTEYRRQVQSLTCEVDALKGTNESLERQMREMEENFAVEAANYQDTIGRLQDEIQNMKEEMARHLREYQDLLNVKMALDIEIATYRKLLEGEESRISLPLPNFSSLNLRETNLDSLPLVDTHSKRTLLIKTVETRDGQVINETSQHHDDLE

Target: T1, Follistatin-like protein 1 (FSTL1) (human (endogenous in SW480)) (UniProt Q12841)
T1 sequence: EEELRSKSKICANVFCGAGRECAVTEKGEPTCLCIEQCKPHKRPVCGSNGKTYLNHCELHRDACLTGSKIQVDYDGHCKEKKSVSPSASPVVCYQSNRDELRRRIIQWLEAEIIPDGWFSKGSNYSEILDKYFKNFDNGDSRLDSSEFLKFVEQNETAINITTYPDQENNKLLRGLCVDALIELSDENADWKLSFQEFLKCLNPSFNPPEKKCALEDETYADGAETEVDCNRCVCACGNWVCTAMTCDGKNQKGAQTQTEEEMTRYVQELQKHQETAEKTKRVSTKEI
Experiment: affinity purification with mass spectrometry; whole-cell lysate of SW480 cells immunoprecipitated with FSTL1 antibody; silver stain; the differential band analysed by mass spectrometry

VIM (from UniProt P08670 1-466)
binding: binds
